{"sequences": {"note": "The chains behind the UniProt entries cited, without tags or fusion partners. Where a name states a change or a piece, a line headed by the entry shows the natural chain unless it says otherwise.", "UniProt Q8WU10": "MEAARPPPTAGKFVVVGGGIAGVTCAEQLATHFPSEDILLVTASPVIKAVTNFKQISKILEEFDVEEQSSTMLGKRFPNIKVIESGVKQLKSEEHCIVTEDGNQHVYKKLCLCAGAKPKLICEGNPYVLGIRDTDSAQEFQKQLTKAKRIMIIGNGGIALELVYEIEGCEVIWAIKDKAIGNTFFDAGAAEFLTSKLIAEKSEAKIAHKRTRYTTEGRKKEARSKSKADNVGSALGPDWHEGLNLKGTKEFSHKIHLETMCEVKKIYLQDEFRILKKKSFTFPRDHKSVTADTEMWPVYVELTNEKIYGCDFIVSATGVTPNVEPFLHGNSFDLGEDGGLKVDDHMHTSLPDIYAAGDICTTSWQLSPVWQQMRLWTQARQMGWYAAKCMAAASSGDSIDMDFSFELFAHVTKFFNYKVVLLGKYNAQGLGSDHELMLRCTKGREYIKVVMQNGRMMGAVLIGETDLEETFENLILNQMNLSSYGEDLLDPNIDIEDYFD", "UniProt Q8WXD5": "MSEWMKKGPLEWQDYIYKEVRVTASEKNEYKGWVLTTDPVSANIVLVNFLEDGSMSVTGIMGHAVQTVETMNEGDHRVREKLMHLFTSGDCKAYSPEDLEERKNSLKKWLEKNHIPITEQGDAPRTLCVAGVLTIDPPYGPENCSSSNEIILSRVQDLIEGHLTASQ", "UniProt Q92585": "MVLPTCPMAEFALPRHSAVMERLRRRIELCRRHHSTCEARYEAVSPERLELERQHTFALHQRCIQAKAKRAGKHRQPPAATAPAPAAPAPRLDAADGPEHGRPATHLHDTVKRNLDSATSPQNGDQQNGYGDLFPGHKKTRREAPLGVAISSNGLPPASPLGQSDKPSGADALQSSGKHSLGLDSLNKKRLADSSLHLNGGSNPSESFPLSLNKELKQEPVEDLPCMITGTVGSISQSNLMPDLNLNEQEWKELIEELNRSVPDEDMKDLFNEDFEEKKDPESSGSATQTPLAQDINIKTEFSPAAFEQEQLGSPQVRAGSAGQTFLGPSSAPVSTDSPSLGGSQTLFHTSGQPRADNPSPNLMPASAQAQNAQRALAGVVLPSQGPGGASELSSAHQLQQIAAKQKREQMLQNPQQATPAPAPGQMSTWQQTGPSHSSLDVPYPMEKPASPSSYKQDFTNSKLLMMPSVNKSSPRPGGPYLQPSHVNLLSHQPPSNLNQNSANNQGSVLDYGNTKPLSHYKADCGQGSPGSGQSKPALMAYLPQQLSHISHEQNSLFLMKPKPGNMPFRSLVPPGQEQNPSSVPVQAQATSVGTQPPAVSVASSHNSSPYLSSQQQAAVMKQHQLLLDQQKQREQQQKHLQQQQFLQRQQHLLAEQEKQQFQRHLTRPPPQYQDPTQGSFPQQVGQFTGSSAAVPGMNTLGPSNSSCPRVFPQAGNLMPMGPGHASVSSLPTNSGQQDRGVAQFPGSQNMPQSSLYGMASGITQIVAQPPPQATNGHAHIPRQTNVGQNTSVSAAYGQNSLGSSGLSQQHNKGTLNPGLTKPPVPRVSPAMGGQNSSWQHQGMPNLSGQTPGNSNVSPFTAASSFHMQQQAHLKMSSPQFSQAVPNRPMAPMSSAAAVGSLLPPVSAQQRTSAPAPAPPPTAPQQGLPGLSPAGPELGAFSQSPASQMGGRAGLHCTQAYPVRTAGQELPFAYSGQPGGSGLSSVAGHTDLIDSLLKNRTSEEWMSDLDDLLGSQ", "UniProt Q8TCU4": "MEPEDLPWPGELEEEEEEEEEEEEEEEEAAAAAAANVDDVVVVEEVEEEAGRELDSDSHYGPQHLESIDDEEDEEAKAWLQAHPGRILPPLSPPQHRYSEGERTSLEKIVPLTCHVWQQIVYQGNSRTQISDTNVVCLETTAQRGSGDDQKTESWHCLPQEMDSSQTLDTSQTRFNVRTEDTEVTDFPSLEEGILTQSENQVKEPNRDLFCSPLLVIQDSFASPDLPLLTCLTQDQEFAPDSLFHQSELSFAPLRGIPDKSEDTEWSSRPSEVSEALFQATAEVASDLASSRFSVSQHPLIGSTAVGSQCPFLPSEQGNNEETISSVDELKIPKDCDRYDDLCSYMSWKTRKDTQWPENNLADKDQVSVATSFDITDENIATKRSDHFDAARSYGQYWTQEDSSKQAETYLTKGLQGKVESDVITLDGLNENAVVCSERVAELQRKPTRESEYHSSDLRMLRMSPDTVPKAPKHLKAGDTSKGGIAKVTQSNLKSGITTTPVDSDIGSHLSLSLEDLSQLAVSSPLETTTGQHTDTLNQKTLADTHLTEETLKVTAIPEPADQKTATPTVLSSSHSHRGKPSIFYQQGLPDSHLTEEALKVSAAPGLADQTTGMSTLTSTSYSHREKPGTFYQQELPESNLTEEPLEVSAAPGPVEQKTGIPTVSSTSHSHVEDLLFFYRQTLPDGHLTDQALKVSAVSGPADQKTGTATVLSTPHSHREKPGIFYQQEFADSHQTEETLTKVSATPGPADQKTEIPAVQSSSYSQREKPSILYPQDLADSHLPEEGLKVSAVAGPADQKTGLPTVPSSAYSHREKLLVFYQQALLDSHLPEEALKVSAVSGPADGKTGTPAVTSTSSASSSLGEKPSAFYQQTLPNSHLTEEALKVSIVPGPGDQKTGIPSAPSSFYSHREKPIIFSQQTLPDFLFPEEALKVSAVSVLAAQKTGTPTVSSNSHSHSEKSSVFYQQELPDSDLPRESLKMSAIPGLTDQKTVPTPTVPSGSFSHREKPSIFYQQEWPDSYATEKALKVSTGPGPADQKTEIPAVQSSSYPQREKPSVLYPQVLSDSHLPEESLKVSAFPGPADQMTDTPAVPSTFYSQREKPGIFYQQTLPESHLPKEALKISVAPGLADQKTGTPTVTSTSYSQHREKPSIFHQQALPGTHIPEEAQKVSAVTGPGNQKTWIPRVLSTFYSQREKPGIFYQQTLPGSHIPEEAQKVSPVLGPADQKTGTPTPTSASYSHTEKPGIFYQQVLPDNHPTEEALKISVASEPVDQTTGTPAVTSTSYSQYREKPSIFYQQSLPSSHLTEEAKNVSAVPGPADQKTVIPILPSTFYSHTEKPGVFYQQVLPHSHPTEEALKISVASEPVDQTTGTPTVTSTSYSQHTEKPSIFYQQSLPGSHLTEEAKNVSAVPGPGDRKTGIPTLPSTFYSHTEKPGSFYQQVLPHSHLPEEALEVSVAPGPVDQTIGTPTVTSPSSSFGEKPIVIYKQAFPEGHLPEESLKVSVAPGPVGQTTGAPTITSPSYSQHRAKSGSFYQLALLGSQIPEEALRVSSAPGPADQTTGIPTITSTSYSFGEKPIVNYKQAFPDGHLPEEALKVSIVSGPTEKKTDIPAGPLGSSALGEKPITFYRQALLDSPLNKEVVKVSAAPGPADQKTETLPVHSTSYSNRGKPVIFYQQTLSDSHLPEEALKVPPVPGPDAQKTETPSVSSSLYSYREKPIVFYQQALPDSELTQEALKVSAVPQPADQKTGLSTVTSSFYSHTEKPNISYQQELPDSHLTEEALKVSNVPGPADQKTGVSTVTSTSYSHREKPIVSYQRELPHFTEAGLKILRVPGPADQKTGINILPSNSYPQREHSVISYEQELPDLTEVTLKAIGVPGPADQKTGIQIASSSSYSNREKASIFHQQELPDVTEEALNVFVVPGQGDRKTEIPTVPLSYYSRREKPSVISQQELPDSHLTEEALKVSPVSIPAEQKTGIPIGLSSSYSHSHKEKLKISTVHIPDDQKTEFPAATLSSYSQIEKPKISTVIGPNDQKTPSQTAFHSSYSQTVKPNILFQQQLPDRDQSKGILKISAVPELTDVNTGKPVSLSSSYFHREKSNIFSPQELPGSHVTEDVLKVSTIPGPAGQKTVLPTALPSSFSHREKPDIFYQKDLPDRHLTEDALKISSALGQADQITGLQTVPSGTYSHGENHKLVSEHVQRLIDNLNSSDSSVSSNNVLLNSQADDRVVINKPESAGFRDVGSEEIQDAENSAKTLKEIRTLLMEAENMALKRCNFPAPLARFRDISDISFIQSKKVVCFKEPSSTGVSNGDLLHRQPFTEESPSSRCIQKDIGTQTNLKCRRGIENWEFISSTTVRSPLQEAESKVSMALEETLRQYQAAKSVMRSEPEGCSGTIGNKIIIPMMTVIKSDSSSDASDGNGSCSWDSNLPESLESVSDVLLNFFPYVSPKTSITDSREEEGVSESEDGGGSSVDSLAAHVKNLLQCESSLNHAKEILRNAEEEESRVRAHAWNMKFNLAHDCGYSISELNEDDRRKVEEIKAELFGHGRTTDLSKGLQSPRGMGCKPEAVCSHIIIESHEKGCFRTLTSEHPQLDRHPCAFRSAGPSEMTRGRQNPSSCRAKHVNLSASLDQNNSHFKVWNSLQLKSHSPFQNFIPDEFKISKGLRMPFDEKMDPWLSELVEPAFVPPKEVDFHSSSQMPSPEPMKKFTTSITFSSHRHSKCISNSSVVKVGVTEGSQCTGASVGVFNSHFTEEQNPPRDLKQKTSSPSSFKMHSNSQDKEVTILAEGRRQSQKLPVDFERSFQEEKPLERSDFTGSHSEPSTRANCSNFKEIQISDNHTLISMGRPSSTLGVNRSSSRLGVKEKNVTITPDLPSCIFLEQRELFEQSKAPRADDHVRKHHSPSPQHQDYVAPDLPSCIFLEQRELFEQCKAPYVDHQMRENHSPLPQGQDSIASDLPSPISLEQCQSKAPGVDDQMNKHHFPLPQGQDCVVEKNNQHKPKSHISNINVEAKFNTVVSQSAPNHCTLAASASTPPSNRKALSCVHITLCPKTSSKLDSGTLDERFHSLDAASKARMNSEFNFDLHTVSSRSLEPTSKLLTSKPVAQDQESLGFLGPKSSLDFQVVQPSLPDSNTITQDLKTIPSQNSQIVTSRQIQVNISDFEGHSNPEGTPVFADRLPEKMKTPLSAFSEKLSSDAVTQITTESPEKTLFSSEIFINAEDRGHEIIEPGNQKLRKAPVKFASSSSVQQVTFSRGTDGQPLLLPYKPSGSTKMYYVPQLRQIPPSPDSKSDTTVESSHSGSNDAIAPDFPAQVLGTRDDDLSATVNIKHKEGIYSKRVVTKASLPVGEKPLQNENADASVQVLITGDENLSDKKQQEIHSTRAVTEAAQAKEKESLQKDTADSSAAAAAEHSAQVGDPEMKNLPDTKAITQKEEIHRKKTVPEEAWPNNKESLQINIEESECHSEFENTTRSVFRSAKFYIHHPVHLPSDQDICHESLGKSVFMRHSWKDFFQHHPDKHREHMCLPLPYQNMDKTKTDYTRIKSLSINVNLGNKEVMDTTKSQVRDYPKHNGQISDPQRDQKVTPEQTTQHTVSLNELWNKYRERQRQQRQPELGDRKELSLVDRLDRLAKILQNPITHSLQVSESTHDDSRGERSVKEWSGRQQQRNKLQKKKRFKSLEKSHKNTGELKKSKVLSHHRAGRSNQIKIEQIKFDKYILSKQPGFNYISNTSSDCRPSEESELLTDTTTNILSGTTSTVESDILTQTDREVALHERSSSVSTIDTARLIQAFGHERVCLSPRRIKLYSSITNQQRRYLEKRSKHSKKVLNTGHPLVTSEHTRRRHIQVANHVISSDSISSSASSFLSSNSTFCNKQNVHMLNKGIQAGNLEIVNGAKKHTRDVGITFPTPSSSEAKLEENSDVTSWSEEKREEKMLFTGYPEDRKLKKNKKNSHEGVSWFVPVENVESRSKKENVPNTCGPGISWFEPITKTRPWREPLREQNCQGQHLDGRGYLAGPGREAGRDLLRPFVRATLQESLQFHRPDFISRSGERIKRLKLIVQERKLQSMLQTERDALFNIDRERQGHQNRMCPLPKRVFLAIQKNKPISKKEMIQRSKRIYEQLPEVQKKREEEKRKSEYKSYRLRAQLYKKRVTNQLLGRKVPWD", "UniProt Q8TEA8": "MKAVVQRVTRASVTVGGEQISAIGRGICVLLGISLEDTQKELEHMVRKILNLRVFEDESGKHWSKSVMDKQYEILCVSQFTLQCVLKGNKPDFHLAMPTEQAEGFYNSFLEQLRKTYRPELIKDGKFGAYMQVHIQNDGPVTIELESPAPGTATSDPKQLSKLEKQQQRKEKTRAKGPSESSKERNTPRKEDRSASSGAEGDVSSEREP", "UniProt Q8TCD1": "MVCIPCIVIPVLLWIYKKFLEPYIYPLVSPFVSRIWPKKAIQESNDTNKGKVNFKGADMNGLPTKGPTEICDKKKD", "UniProt Q8WUW1": "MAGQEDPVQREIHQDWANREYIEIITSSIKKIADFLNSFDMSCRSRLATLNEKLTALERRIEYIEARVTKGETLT", "UniProt Q8TBM8": "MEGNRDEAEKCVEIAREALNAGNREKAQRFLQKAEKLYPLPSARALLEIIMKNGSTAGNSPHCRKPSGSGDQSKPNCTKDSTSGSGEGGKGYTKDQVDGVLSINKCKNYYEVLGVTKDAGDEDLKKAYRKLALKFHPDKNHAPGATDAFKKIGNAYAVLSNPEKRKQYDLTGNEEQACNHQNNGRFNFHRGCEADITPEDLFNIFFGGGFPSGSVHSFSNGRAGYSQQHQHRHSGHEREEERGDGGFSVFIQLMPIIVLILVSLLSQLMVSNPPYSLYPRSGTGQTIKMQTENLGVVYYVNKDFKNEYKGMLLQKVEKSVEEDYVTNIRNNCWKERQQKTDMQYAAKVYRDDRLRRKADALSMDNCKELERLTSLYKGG"}, "source": "the supplement of paper PMC12819154", "about": "“High-throughput peptide-centric local stability assay extends protein–ligand identification to membrane proteins, tissues and bacteria” (Nature Structural & Molecular Biology, 2025)", "note": "The list shows a part of the results. Most values lie at the level of the controls, where differences are scatter."}
{"compound": "Cc1nc(Nc2ncc(C(=O)Nc3c(C)cccc3Cl)s2)cc(N2CCN(CCO)CC2)n1 [dasatinib]", "assay": "log2 fold change of tryptic peptide abundance, ligand vs vehicle (limited proteolysis) (log2 ratio); higher = more trypsin-susceptible (destabilized)", "conditions": "ligand concentration: 5 uM; sample: K562 cleared lysate"}
{"target": "DOT1L (peptide sequence: LSGLAAPDYTR, peptide start residue: 763) (UniProt Q8TEK3)", "log2 fold change": -0.747}
{"target": "WDR20 (peptide sequence: SSVMDGAIASGVSK, peptide start residue: 447) (UniProt Q8TBZ3)", "log2 fold change": 0.126}
{"target": "UniProt Q8TAB5 (peptide sequence: SSSPEPACGTPR, peptide start residue: 124)", "log2 fold change": 0.0111}
{"target": "PYROXD1 (peptide sequence: IHLETMCEVKKIYLQDEFR, peptide start residue: 255) (UniProt Q8WU10)", "log2 fold change": 0.176}
{"target": "BRSK1 (peptide sequence: ALEMAQHSQR, peptide start residue: 420) (UniProt Q8TDC3)", "log2 fold change": 0.598}
{"target": "FBF1 (peptide sequence: AELTAQHQR, peptide start residue: 670) (UniProt Q8TES7)", "log2 fold change": 0.819}
{"target": "ZNF507 (peptide sequence: ERTDQNASDDDILK, peptide start residue: 596) (UniProt Q8TCN5)", "log2 fold change": -0.681}
{"target": "GEMIN6 (peptide sequence: KGPLEWQDYIYK, peptide start residue: 7) (UniProt Q8WXD5)", "log2 fold change": 0.412}
{"target": "MAML1 (peptide sequence: HLQQQQFLQR, peptide start residue: 640) (UniProt Q92585)", "log2 fold change": 0.252}
{"target": "ALMS1 (peptide sequence: DISDISFIQSK, peptide start residue: 2288) (UniProt Q8TCU4)", "log2 fold change": 0.488}
{"target": "OVCA2 (peptide sequence: VLCLAGFR, peptide start residue: 9) (UniProt Q8WZ82)", "log2 fold change": -0.0448}
{"target": "DTD1 (peptide sequence: AKGPSESSK, peptide start residue: 175) (UniProt Q8TEA8)", "log2 fold change": -0.0662}
{"target": "C18orf32 (peptide sequence: KAIQESNDTNK, peptide start residue: 39) (UniProt Q8TCD1)", "log2 fold change": 0.61}
{"target": "SCARB1 (peptide sequence: IHLVDKWNGLSK, peptide start residue: 231) (UniProt Q8WTV0)", "log2 fold change": -0.295}
{"target": "FAM222B (peptide sequence: ELAGPGFVGK, peptide start residue: 397) (UniProt Q8WU58)", "log2 fold change": 0.153}
{"target": "ABHD5 (peptide sequence: IAGPFGLSLVQR, peptide start residue: 216) (UniProt Q8WTS1)", "log2 fold change": -0.204}
{"target": "SYNE2 (peptide sequence: VSRFHRR, peptide start residue: 6340) (UniProt Q8WXH0)", "log2 fold change": -0.231}
{"target": "TFB1M (peptide sequence: SLCDVYRK, peptide start residue: 302) (UniProt Q8WVM0)", "log2 fold change": 0.635}
{"target": "SHKBP1 (peptide sequence: RRGGGSFVER, peptide start residue: 657) (UniProt Q8TBC3)", "log2 fold change": -0.185}
{"target": "RAPGEF6 (peptide sequence: RLPDQFSK, peptide start residue: 810) (UniProt Q8TEU7)", "log2 fold change": -0.472}
{"target": "TRIM41 (peptide sequence: HYWEVEVGGRR, peptide start residue: 486) (UniProt Q8WV44)", "log2 fold change": 0.439}
{"target": "PHF3 (peptide sequence: QDQQQLDRPFNR, peptide start residue: 1904) (UniProt Q92576)", "log2 fold change": -0.281}
{"target": "UniProt Q8WUW1 (peptide sequence: EYIEIITSSIKK, peptide start residue: 20)", "log2 fold change": -0.479}
{"target": "ZNF417 (peptide sequence: TAYPCEECGK, peptide start residue: 294) (UniProt Q8TAU3)", "log2 fold change": 0.351}
{"target": "BICD2 (peptide sequence: VLELQTELK, peptide start residue: 118) (UniProt Q8TD16)", "log2 fold change": -0.251}
{"target": "RFFL (peptide sequence: GCCEKWELMER, peptide start residue: 271) (UniProt Q8WZ73)", "log2 fold change": -0.026}
{"target": "DNAJB14 (peptide sequence: NGSTAGNSPHCR, peptide start residue: 53) (UniProt Q8TBM8)", "log2 fold change": 0.224}
{"target": "DDB2 (peptide sequence: TSEIVLRPR, peptide start residue: 12) (UniProt Q92466)", "log2 fold change": 0.272}
